Data: article PMC11211476
No constants are given. Whether binding was seen depends on the method and setting. In cells and extracts the contact can be indirect. Some entries that bind do so weakly or less than the wild type. For some of these results: Sequences can lack the tags named with a protein. Blank lines part the entries; values can stand above or below the binder they belong to.

What was measured:
[1] = molecular target: T1, His-TAK1-WT (UniProt Q62073); assay: co-IP; NIH/3T3 transfected with His-TAK1 (WT or K158R) with or without Flag-OTUD5 (WT or C224A); co-IP with an anti-His antibody, western blot of TAK1 and TAB2
T1 sequence: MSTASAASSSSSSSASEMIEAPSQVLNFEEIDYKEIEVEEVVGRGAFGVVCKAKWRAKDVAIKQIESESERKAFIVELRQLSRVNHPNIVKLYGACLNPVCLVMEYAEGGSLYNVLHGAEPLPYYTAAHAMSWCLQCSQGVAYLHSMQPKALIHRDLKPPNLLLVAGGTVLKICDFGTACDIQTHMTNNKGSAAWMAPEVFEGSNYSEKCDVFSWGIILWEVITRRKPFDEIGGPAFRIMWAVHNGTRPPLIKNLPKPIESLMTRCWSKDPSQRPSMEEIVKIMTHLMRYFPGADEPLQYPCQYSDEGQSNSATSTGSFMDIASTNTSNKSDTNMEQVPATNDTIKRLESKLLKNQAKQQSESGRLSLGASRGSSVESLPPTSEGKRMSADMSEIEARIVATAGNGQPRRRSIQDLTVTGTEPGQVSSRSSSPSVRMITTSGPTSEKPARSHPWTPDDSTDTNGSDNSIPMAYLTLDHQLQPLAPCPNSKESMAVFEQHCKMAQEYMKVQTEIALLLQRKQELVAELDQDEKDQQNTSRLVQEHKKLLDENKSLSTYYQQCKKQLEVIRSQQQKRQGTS

[2] = molecular target: T2, ovarian tumor deubiquitinase 5 (OTUD5), endogenous (mouse (endogenous in MPC5 cells and mouse kidney tissue)) (UniProt Q3U2S4); assay: co-IP; MPC5 cell lysate; endogenous OTUD5 immunoprecipitated, control IgG; protein A + G agarose, 5 washes with PBS; western blot
T2 sequence: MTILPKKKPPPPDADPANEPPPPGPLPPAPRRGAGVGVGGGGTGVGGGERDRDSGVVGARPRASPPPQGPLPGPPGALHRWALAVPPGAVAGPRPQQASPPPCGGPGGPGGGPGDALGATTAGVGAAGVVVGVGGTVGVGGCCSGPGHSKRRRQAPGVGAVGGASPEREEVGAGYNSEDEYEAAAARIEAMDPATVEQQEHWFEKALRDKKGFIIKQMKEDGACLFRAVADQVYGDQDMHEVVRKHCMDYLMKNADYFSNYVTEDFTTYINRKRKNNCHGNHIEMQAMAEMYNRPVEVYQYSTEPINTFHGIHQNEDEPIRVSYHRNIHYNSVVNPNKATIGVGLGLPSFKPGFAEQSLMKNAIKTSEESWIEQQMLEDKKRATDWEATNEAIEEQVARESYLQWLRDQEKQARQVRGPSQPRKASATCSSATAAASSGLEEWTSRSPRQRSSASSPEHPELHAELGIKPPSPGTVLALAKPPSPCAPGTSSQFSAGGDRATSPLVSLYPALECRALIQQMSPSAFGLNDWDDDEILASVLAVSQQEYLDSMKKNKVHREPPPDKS

[3] = molecular target: T2, ovarian tumor deubiquitinase 5 (OTUD5), endogenous (mouse (endogenous in MPC5 cells and mouse kidney tissue)); assay: co-IP; mouse kidney tissue lysate; endogenous OTUD5 immunoprecipitated, control IgG; protein A + G agarose, 5 washes with PBS; western blot
[4] = molecular target: T3, Flag-OTUD5-WT (UniProt Q3U2S4); assay: co-IP; NIH/3T3 co-transfected with Flag-OTUD5 and His-TAK1 plasmids; exogenous OTUD5 immunoprecipitated with an anti-Flag antibody
T3 sequence: T2 sequence

binding [1]: binds
B1: TAB2, endogenous (protein, UniProt Q99K90 1-693)
chain: MAQGSHQIDFQVLHDLRQKFPEVPEVVVSRCMLQNNNNLDACCAVLSQESTRYLYGEGDLNFSDESGISGLRNHMTSLNLDLQSQNVYHHGREGSRVNGSRTLTHSVSDGQLHGGQSNNELFQQEPQTAPAQVPQGFNVFGMPSTSGASNSTPHLGFHLGSKGTSNLSQQTPRFNPIMVTLAPNIQTGRSTPTSLHIHGVPPPVLNSPQGNSIYIRPYITTPSGTARQTQQHSGWVSQFNPMNPQQAYQPSQPGPWTTYPASNPLPHTSTQQPNQQGHQTSHVYMPISSPTTPQPPTIHSSGSSQSSAHSQYNIQNISTGPRKNQIEIKLEPPQRNSSSKLRSSGPRTASTSSLVNSQTLNRNQPTVYIAASPPNTDEMISRSQPKVYISANATAGDEQGMRNQPTLFISTNSGPSAASRNMSGQVSMGPAFIHHHPPKSRVLGGNSATSPRVVVTQPNTKYTFKITVSPNKPPAVSPGVVSPTFELTNLLNHPDHYVETENIQHLTDPALAHVDRISEARKLSMGSDDAAYTQALLVHQKARMERLQRELEMQKKKLDKLKSEVNEMENNLTRRRLKRSNSISQIPSLEEMQQLRSCNRQLQIDIDCLTKEIDLFQARGPHFNPSAIHNFYDNIGFVGPVPPKPKDQRSTIKAPKTQDAEDEEGAQWNCTACTFLNHPALIRCEQCEMPRHF

binding [2]: binds
binding [3]: binds
B2: TGF-β-activated kinase 1 (TAK1), endogenous (enzyme, UniProt Q62073 1-579)
chain: T1 sequence

binding [4]: binds
B3: His-TAK1-WT (enzyme, UniProt Q62073 1-579)
chain: T1 sequence
